# Measurements published in paper PMC5320500.
# Amino acid sequences for entries named in this document (tags omitted). A change or cut given only in a name is not applied to a line headed by its entry.
# UniProt Q5D869: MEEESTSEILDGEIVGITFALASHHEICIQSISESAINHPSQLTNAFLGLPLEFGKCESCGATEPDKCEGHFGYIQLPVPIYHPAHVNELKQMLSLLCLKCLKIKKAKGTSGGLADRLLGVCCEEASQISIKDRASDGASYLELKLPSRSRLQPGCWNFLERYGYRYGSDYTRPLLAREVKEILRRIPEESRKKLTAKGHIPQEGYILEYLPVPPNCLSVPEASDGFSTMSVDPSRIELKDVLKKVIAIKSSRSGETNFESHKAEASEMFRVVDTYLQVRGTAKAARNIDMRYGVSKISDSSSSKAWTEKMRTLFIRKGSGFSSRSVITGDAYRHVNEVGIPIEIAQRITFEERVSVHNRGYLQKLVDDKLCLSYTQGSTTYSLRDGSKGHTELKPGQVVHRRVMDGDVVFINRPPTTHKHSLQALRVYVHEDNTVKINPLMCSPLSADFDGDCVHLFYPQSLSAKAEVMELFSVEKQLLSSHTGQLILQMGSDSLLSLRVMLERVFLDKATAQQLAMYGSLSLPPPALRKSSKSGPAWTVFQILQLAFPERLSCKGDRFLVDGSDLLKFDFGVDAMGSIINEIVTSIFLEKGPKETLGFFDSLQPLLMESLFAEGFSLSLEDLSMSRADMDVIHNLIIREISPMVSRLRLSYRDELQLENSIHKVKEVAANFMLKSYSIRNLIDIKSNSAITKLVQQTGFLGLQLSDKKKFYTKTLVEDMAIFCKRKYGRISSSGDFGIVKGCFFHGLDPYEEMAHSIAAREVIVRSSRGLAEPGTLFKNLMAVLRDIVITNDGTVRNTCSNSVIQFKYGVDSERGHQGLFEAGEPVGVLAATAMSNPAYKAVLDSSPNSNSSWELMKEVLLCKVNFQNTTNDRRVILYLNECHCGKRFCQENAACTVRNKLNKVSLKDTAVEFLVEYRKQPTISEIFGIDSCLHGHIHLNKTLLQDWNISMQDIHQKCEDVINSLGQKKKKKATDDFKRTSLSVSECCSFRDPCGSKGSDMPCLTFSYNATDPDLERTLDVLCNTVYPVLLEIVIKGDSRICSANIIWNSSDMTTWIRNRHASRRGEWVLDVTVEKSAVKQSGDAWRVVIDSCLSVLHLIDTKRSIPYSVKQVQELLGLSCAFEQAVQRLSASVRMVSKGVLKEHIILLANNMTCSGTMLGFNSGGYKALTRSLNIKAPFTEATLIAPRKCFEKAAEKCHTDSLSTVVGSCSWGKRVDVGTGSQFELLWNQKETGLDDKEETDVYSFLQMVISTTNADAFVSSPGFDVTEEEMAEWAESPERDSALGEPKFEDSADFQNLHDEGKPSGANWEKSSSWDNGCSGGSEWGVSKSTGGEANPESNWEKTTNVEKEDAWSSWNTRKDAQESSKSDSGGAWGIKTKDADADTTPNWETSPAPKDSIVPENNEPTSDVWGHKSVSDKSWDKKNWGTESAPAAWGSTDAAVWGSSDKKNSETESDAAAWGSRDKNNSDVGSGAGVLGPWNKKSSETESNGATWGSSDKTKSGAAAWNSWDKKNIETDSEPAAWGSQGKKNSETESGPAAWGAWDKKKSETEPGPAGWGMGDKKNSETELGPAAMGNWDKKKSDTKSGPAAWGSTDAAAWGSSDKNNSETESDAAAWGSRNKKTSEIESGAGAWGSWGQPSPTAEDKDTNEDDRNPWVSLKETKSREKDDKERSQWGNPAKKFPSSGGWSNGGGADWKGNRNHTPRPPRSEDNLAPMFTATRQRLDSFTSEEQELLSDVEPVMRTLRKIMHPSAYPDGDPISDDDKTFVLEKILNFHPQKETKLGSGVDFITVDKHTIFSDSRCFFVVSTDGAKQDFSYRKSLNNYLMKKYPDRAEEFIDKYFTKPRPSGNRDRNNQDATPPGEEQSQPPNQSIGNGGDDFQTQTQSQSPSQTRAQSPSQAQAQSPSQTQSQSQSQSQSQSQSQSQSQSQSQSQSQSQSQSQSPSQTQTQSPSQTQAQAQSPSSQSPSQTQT
# UniProt Q9SL67: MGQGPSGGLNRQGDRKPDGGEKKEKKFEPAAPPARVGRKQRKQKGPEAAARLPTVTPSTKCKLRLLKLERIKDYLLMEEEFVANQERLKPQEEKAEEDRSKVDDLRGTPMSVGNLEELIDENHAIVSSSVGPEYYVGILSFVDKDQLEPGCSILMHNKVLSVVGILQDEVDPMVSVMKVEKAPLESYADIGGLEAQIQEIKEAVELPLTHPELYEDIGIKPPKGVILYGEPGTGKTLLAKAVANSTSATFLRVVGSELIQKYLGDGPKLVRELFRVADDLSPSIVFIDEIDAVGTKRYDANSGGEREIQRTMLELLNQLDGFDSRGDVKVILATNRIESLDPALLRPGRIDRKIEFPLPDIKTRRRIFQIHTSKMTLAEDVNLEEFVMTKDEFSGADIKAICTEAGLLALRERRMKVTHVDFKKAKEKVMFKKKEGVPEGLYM
# UniProt Q8LFJ6: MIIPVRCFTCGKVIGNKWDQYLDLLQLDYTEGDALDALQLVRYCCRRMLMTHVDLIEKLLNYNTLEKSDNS
# UniProt O65719: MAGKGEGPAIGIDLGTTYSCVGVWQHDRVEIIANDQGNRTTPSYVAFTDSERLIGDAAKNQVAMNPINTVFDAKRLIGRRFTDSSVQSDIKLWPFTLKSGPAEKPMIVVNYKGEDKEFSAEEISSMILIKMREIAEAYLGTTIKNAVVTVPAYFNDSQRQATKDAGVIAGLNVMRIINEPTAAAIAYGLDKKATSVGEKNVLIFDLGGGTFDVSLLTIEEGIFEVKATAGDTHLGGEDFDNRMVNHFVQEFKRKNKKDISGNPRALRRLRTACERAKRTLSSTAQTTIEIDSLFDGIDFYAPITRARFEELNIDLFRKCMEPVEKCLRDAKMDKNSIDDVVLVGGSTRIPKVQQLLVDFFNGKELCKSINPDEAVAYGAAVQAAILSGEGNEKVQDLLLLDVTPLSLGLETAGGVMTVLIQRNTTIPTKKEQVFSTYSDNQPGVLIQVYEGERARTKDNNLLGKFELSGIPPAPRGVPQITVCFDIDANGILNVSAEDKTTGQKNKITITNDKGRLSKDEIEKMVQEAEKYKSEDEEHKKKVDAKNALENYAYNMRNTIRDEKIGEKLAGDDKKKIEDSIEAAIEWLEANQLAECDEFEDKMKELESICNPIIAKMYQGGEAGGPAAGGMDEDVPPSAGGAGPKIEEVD
# UniProt Q9FLM8: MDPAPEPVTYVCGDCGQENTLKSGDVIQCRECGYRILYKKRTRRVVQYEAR
# UniProt Q9M1J2: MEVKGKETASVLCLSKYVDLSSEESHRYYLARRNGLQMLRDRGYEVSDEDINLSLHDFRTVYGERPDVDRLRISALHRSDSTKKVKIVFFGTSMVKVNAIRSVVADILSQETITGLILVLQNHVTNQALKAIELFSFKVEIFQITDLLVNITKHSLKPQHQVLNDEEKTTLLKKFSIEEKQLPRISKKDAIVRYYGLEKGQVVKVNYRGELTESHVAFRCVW
# UniProt Q9FMR9: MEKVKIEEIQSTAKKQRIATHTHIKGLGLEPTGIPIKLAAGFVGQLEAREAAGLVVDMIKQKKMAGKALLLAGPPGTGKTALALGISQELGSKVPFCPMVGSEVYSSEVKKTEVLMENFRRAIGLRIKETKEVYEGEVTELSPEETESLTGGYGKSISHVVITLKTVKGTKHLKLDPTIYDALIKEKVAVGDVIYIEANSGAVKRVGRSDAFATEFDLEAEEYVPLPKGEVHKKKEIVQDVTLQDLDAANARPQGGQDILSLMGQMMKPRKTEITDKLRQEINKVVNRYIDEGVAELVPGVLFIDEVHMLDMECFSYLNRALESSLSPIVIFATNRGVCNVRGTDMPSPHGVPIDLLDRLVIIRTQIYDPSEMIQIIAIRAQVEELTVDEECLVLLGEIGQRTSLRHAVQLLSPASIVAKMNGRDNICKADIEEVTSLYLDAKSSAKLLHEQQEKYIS
# UniProt Q9FJ98: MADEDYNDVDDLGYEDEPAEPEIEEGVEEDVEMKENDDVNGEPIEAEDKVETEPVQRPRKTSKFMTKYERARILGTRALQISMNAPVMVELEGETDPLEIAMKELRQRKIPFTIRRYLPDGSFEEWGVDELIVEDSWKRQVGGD
# UniProt P22953: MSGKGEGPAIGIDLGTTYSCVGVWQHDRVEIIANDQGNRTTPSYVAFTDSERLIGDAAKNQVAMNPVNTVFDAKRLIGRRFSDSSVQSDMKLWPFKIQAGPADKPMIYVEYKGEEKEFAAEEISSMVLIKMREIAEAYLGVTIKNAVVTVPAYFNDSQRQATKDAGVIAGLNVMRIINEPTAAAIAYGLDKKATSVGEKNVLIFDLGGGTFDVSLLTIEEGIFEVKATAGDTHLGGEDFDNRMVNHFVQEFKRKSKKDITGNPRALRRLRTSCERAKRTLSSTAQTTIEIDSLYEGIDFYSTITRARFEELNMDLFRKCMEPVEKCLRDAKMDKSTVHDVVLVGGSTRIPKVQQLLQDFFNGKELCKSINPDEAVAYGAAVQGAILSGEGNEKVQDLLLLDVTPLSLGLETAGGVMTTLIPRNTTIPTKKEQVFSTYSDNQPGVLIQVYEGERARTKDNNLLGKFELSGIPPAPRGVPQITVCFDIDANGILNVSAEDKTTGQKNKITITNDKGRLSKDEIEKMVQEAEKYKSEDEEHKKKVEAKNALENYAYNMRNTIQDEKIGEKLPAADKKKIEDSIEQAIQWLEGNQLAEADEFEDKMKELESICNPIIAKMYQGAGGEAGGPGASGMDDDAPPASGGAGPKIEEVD
# UniProt P55737: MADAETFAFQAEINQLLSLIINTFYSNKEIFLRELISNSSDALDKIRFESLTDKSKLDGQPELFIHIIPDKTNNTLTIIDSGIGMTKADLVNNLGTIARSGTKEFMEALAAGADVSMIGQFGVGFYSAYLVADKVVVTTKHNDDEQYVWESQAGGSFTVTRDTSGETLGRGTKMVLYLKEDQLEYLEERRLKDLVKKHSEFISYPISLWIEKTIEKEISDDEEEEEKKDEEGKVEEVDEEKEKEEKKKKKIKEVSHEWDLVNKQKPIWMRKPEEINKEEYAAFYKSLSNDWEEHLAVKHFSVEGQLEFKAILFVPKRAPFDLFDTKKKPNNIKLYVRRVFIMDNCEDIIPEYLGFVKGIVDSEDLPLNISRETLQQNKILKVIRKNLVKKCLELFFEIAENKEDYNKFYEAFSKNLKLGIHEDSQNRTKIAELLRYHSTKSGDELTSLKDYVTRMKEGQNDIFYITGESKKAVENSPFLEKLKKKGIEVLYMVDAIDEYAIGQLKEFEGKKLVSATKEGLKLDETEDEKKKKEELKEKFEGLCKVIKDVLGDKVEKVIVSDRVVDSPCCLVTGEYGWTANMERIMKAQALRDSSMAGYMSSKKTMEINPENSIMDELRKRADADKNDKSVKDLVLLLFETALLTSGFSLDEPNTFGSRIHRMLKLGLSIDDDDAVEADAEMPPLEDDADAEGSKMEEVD
# UniProt Q9SJ96: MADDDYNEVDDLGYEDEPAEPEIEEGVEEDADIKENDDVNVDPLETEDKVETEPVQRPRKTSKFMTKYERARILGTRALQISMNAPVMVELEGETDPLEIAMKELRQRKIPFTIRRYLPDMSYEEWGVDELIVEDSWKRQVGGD
# Columns and labels:
# [1] = target: NRPE1-FLAG (Arabidopsis thaliana) (UniProt Q5D869); experiment: affinity purification with mass spectrometry; dimethylated anti-FLAG antibody purification with forward and reciprocal 14N/15N metabolic labelling of Col-0 wild-type and NRPE1-FLAG transgenic seedlings; H/L ratios by LC MS/MS to tell specific from non-specific proteins
# [2] = target: NRPE1-FLAG (largest subunit of nuclear RNA polymerase V) (Arabidopsis thaliana) (UniProt Q5D869); experiment: affinity purification with mass spectrometry; anti-FLAG M2 beads (non-methylated, Control 1 and 2, or dimethylated) in lysate of 14-day NRPE1-FLAG transgenic Arabidopsis seedlings, 4 °C, 3 h; on-bead digestion by trypsin, or by Lys-C and then trypsin; LC MS/MS; three biological repeats
# [3] = target: NRPE1-FLAG (largest subunit of nuclear RNA polymerase V) (Arabidopsis thaliana) (UniProt Q5D869); experiment: affinity purification with mass spectrometry; dimethylated anti-FLAG beads; 14N/15N metabolic labelling of NRPE1-FLAG transgenic against wild-type Col-0 seedlings, forward and reciprocal, two biological duplicates; ratios by Mascot Distiller
Substance,binding [2],binding [3],further results
regulatory particle AAA-ATPase 2B (from UniProt Q9SL67 1-443),,,binding [1]: binds
NRPE10 (from UniProt Q8LFJ6 1-71),binds,,
HSP70-3 (from UniProt O65719 1-649),,binds,
NRPE12 (from UniProt Q9FLM8 1-51),binds,,
NRPE5 (from UniProt Q9M1J2),binds,,
RuvB-like protein 1 (from UniProt Q9FMR9 1-458),,,binding [1]: binds
NRPE6a (from UniProt Q9FJ98 1-144),binds,,
HSP70-1 (from UniProt P22953 1-651),,binds,

# Now from value to substance, other results behind:
binding [2],binding [3],Substance,further results
,binds,HSP81-2 (from UniProt P55737 1-699),
binds,,NRPE6b (from UniProt Q9SJ96 1-144),

# No constants are given. Whether binding was seen depends on the method and setting. Binding seen in cells or lysates may run through a third protein. A yes stands for co-enrichment or nearness to the bait. Other partners may have been found.
